These are yes or no findings as the source states them, for the method shown. Some binding calls cover weakened binding; strength is not graded here. Tags and fused reporters may be left off the sequences shown.
Molecular target: T1, mouse ICOS expressed on COS transfectants (mouse) (UniProt Q9WVS0)
T1 sequence (looked up): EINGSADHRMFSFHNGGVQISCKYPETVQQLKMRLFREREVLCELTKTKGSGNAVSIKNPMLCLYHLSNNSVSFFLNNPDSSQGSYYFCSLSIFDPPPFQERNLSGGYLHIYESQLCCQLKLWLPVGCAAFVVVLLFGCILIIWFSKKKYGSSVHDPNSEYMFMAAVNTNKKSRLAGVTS
Test: flow cytometry on COS transfectants

binding: binds
B1: murine GL50-1Ig fusion protein (Fc fusion)
chain: ETEVGAMVGSNVVLSCIDPHRRHFNLSGLYVYWQIENPEVSVTYYLPYKSPGINVDSSYKNRGHLSLDSMKQGNFSLYLKNVTPQDTQEFTCRVFMNTATELVKILEEVVRLRVAANFSTPVISTSDSSNPGQERTYTCMSKNGYPEPNLYWINTTDNSLIDTALQNNTVYLNKLGLYDVISTLRLPWTSRGDVLCCVENVALHQNITSISQAESFTGNNTKNPQETHNNEEPRGPTIKPCPPCKCPAPNLEGGPSVFIFPPKIKDVLMISLSPIVTCVVVDVSEDDPDVQISWFVNNVEVHTAQTQTHREDYNSTLRVVSALPIQHQDWMSGKAFACAVNNKDLPAPIERTISKPKGSVRAPQVYVLPPPEEEMTKKQVTLTCMVTDFMPEDIYVEWTNNGKTELNYKNTEPVLDSDGSYFMYSKLRVEKKNWVERNSYSCSVVHEGLHNHHTTKSFSRTPGK

— US20040054158A1
